Measured values: publication PMC4673280
No constants are given. Whether binding was seen depends on the method and setting. In cells and extracts the contact can be indirect. Some results given as binding are weak or reduced against the parent protein; the word gives no strength.

Amino acid sequences for entries named in this document (tags omitted).
UniProt P23804: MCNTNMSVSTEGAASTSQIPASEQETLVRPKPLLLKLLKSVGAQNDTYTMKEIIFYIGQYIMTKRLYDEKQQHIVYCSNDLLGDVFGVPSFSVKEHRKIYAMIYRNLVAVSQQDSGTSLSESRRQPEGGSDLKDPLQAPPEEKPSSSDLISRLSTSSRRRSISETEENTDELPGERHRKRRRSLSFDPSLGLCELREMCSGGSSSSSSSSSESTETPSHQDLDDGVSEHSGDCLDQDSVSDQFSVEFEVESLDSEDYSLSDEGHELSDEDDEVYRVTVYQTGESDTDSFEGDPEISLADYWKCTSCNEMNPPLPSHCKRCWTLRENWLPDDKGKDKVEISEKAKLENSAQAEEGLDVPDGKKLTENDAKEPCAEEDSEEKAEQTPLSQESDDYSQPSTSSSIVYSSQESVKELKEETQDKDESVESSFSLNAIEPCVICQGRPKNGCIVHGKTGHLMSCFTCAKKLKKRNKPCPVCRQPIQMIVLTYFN
UniProt Q00987: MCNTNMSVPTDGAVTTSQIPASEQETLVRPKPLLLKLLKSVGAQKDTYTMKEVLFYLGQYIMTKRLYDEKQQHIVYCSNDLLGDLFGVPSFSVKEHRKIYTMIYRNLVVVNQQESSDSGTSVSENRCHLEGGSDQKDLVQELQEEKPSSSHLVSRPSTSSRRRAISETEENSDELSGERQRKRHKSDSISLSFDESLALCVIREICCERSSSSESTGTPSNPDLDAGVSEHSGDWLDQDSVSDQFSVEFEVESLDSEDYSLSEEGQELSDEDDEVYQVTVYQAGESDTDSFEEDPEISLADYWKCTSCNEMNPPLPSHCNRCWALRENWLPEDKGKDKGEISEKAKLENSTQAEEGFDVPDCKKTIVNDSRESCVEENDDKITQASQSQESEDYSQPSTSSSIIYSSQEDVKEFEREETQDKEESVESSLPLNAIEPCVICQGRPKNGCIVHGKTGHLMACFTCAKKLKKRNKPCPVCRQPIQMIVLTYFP
UniProt Q8C863: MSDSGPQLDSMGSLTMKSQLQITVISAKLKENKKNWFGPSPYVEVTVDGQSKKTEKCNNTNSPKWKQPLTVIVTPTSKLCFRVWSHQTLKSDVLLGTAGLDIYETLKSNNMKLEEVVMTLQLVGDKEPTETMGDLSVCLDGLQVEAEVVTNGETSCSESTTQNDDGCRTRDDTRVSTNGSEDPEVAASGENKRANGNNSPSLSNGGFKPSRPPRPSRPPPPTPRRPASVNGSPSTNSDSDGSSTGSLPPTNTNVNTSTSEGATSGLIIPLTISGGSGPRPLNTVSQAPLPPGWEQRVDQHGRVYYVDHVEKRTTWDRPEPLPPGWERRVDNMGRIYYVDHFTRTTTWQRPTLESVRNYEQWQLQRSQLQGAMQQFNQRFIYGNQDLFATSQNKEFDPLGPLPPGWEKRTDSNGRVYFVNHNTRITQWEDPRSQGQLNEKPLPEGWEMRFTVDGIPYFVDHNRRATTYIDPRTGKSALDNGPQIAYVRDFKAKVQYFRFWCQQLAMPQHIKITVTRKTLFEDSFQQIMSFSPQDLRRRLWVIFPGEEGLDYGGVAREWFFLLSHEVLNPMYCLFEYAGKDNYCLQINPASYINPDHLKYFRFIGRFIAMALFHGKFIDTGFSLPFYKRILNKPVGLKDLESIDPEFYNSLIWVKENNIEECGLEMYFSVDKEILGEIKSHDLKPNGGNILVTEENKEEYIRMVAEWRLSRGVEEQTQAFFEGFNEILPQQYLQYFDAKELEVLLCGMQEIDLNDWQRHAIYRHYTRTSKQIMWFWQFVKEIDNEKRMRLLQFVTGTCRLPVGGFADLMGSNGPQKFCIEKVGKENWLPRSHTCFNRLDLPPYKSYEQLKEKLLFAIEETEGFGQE

Columns and labels:
[1] = biological target: T1, p73 (endogenous, HEK293 cells) (human (endogenous in HEK293)) (UniProt O15350); experiment: co-IP; endogenous proteins, extracts of HEK293 cells; IP with anti-MDM2 (SMP14) or anti-p73 (ER-15), control mouse IgG; lysis buffer 50 mM Tris-HCl pH 8.0, 5 mM EDTA, 150 mM NaCl, 0.5% NP-40; Western blot
T1 sequence: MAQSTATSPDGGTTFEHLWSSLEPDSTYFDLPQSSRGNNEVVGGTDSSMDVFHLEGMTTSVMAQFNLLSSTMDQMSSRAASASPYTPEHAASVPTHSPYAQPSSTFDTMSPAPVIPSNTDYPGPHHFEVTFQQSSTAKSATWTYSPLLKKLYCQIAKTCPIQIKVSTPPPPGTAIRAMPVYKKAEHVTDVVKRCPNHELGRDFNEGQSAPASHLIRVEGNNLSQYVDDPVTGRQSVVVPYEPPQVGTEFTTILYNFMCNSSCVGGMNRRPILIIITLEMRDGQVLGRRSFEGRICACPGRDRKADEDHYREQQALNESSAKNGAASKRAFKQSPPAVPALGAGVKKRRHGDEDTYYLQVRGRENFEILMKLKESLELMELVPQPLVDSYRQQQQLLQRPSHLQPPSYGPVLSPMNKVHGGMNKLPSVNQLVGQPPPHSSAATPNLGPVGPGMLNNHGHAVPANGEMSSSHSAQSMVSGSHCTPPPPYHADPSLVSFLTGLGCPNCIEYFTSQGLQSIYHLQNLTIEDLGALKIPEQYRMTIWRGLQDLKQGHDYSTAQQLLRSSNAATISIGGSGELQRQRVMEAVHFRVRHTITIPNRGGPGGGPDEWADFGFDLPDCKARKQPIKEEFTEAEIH

[2] = biological target: Mdm2 (mouse, transfected into MEFs) (mouse) (UniProt P23804); experiment: co-IP; Mdm2-null MEFs transfected with an Mdm2 plasmid, MG132 (20 uM) for 6 hours before harvest; IP with anti-Mdm2 or anti-Itch, Western blot
[3] = biological target: Mdm2 (mouse, transfected into MEFs) (mouse) (UniProt P23804); experiment: co-IP; wild type MEFs transfected with an Mdm2 plasmid, MG132 (20 uM) for 6 hours before harvest; IP with anti-Mdm2 or anti-Itch, Western blot

Substance | binding [1] | binding [2] | binding [3]
MDM2 (endogenous, HEK293 cells) (from UniProt Q00987 1-491) | binds | – | –
Itch (endogenous, MEFs) (from UniProt Q8C863 1-864) | – | binds | binds weakly
